The supplement of paper PMC9015667
Structures can show the parent of a compound that is named as a salt. Some of the results follow. Many values rest on one well or one pass, so single values are uncertain.

Key:
Assay in all cases: reduction in cell viability relative to untreated/vehicle; higher = more growth inhibition
Conditions in all cases: 200 nM; 72 h
[1] = test system: M229P (parental melanoma line)
[2] = test system: M229R (matched melanoma line resistant to BRAF inhibitors)
[3] = test system: M238P (parental melanoma line)
[4] = test system: M238R (matched melanoma line resistant to BRAF inhibitors)
[5] = test system: M249P (parental melanoma line)
[6] = test system: M249R (matched melanoma line resistant to BRAF inhibitors)
[7] = test system: UACC62P (parental melanoma line)
[8] = test system: UACC62R (matched melanoma line resistant to BRAF inhibitors)

Row | SMILES | reduction in cell viability [1] [%] | reduction in cell viability [2] [%] | reduction in cell viability [3] [%] | reduction in cell viability [4] [%] | reduction in cell viability [5] [%] | reduction in cell viability [6] [%] | reduction in cell viability [7] [%] | reduction in cell viability [8] [%]
1 | CNC(=O)N1N=C(c2ccc(N)cc2)c2cc3c(cc2CC1C)OCO3 (configuration not stated) | < 0 | < 0 | < 0 | < 0 | < 0 | 19.9 | 19 | < 0
2 | O=S(=O)(CC1CS1)c1ccc(Oc2ccccc2)cc1 (configuration not stated) | < 0 | < 0 | < 0 | < 0 | < 0 | < 0 | < 0 | < 0
3 | COc1ccc2c(c[n+](C)c3c4cc5c(cc4ccc23)OCO5)c1OC [Chelerythrine chloride] | < 0 | < 0 | 21.1 | < 0 | < 0 | < 0 | 20.5 | < 0
4 | CC(C)(O)/C=C/C(=O)[C@](C)(O)[C@H]1[C@H](O)C[C@@]2(C)[C@@H]3CC=C4[C@@H](C=C(O)C(=O)C4(C)C)[C@]3(C)C(=O)C[C@]12C [Cucurbitacin I] | 33.8 | 48.2 | 53.1 | 69.5 | 59.5 | 66 | 33 | 65.1
5 | Cc1cc(SCc2sc(-c3ccc(C(F)(F)F)c(F)c3)nc2C)ccc1OCC(=O)O | < 0 | < 0 | < 0 | < 0 | 3.9 | < 0 | 8.51 | < 0
6 | N=c1c2c(-c3ccccc3)c(-c3ccccc3)n(Cc3ccccc3)c2ncn1C1CCC(O)CC1 (configuration not stated) | 13.4 | 28.6 | 25.5 | < 0 | 3.77 | 7.58 | 13.5 | 56.6
7 | CO/C1=C\C(C)=C\[C@@H](C)[C@@H](O)[C@@H](C)C/C(C)=C/C=C/[C@H](OC)[C@@H]([C@@H](C)[C@@H](O)[C@H](C)[C@@]2(O)C[C@@H](O)[C@H](C)[C@@H](C(C)C)O2)OC1=O [Bafilomycin A1] | 53.8 | 57.9 | 54.4 | 45 | 89.1 | 88 | 69 | 92.9
8 | CNC(=O)c1ccc(N2C(=S)N(c3ccc(C#N)c(C(F)(F)F)c3)C(=O)C23CCC3)cc1F | < 0 | < 0 | < 0 | < 0 | < 0 | < 0 | < 0 | < 0
9 | C[C@@]12C(=O)OC(=O)[C@]1(C)[C@H]1CC[C@@H]2O1 [Cantharidin] | < 0 | < 0 | < 0 | < 0 | < 0 | < 0 | < 0 | < 0
10 | CCc1c(C(=O)C(N)=O)c2c(OCC(=O)O)cccc2n1Cc1ccccc1 [Varespladib] | < 0 | < 0 | < 0 | < 0 | < 0 | < 0 | < 0 | < 0
11 | COc1ccc(C(=O)c2c(C)n(CCN3CCOCC3)c3ccccc23)cc1 [Pravadoline] | < 0 | < 0 | < 0 | < 0 | < 0 | < 0 | < 0 | < 0
12 | CN(C)CCc1ccc(O)cc1 [Hordenine] | < 0 | < 0 | < 0 | < 0 | < 0 | < 0 | 1.8 | < 0
13 | CC(=O)Nc1ccc(OC[C@](C)(O)C(=O)Nc2ccc([N+](=O)[O-])c(C(F)(F)F)c2)cc1 [Andarine] | < 0 | < 0 | < 0 | < 0 | < 0 | < 0 | < 0 | < 0
14 | COc1ccc2c(c1)[C@]13CCCC[C@@H]1[C@H](C2)N(C)CC3 [Dextromethorphan hydrobromide] | < 0 | 0.55 | < 0 | < 0 | < 0 | < 0 | < 0 | < 0

An excerpt of these results, with tabs.
Row	SMILES	reduction in cell viability [1] [%]	reduction in cell viability [2] [%]	reduction in cell viability [3] [%]	reduction in cell viability [4] [%]	reduction in cell viability [5] [%]	reduction in cell viability [6] [%]	reduction in cell viability [7] [%]	reduction in cell viability [8] [%]
12	CN(C)CCc1ccc(O)cc1 [Hordenine]	< 0	< 0	< 0	< 0	< 0	< 0	1.8	< 0
13	CC(=O)Nc1ccc(OC[C@](C)(O)C(=O)Nc2ccc([N+](=O)[O-])c(C(F)(F)F)c2)cc1 [Andarine]	< 0	< 0	< 0	< 0	< 0	< 0	< 0	< 0
